The other results are listed elsewhere or left out.
Assays:
Assay in all cases: log2 fold change, soluble protein after heating vs DMSO (PISA); higher = thermal stabilisation; K562 lysate, 10 uM; active = over 0.2 and 3.5 SD of the protein, either way, in both replicates (recomputed)
[1] = compound: C1=CC=C(C=C1)[C@H](COC2=CC3=C(C=C2)NC(=O)N3)NC(=O)C4=CC=CN(C4=O)CC5=CC(=C(C=C5)F)F
Method in brief: (§1)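 A 30 min treatment with 10 μM compound was applied to crude K562 extract at 1 mg/mL protein in PBS pH 7.4 with 1 mM MgCl2. Heating for 3 min spanned 48°C-58°C, after which aliquots were pooled, adjusted to 0.5% NP-40 at 4°C and spun at 21,000xg for 90 min. TMTpro 16plex LC-MS/MS of the supernatant, with channel sums equalised, gave values recorded as log-two fold change in thermal stability against solvent controls, from duplicates.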

By UniProt entry, the sequences of proteins in these tests, tags left out. Where a name states a change or a piece, a line headed by the entry shows the natural chain unless it says otherwise.
UniProt P07814: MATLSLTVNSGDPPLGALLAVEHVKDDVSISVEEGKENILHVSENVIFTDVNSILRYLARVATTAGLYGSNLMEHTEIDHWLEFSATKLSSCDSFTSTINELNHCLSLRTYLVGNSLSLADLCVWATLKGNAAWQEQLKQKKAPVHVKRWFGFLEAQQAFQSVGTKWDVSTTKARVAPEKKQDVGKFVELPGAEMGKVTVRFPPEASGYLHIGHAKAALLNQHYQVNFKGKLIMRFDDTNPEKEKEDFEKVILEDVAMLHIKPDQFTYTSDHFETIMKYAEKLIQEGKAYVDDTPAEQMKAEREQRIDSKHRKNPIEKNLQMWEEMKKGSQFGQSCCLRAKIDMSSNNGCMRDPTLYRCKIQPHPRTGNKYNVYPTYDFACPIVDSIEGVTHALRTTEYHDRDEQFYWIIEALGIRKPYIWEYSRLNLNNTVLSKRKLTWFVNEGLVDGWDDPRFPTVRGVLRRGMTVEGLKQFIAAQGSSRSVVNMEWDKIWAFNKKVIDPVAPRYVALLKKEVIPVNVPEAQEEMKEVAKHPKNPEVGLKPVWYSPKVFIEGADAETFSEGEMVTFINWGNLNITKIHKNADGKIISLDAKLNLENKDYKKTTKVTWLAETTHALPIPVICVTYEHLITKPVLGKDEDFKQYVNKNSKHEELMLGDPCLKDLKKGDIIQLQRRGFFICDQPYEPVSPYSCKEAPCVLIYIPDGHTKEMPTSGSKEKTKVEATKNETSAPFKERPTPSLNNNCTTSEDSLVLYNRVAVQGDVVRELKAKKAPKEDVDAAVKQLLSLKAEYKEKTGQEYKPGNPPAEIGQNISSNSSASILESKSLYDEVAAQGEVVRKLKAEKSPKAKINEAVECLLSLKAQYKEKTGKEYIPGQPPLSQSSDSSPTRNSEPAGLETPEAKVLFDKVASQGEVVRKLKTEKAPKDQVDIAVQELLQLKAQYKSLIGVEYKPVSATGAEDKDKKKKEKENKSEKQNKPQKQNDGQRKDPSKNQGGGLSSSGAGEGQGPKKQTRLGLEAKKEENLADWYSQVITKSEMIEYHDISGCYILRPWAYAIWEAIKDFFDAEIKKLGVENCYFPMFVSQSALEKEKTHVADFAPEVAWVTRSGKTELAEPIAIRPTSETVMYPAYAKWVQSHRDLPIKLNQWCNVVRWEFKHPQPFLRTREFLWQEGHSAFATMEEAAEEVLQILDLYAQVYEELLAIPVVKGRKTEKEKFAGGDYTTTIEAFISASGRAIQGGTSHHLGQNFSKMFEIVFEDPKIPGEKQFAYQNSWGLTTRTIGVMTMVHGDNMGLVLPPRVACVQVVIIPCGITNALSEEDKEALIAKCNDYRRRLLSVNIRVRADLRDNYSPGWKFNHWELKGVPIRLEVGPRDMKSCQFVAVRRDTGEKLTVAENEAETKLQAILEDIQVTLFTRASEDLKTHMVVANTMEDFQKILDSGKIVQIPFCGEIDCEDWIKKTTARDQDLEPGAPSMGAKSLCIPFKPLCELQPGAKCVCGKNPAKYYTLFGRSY
UniProt O95163: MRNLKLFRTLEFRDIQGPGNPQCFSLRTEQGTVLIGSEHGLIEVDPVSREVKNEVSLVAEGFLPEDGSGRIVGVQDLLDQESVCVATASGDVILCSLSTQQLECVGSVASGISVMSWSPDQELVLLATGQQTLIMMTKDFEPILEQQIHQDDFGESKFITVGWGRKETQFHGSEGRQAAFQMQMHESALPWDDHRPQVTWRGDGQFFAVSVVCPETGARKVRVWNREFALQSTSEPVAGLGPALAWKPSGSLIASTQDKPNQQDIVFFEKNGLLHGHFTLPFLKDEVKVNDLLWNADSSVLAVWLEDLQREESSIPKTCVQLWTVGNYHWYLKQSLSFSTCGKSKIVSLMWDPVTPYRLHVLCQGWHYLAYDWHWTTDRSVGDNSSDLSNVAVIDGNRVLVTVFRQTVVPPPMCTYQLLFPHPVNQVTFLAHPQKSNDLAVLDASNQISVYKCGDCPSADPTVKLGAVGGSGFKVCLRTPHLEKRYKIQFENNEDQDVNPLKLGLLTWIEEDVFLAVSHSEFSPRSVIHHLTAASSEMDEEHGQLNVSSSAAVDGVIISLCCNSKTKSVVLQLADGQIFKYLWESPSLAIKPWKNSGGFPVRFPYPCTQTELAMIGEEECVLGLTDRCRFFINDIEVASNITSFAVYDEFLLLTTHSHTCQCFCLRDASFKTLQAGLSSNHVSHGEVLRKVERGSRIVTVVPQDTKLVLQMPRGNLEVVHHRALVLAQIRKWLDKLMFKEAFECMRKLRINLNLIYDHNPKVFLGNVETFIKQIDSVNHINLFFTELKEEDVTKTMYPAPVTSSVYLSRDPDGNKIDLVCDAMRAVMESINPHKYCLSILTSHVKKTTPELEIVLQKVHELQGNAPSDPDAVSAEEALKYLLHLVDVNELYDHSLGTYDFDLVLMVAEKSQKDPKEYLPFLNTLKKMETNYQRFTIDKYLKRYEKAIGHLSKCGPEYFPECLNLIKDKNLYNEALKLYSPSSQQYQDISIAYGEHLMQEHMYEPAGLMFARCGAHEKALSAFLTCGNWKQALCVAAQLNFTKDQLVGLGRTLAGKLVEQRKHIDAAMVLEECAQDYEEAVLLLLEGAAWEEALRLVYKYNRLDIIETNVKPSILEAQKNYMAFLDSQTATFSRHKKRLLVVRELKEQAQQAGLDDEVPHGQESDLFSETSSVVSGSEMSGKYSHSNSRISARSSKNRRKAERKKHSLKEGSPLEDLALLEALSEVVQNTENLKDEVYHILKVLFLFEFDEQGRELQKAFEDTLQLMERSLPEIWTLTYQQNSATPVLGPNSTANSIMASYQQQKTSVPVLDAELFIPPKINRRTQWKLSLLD

[2] = compound: CC1=C(SC2=C1C(=N[C@H](C3=NN=C(N32)C)CC(=O)N)C4=CC=C(C=C4)Cl)C
Method in brief: as §1

[3] = compound: CC1=C2C(=CC=C1)N=C(N(C2=O)C3=CC=CC=C3C)CN4C=NC5=C(N=CN=C54)N
Method in brief: as §1

[4] = compound: Cc1sc2c(c1C)C(c1ccc(Cl)cc1)=N[C@@H](CC(=O)OC(C)(C)C)c1nnc(C)n1-2
Method in brief: as §1

[5] = compound: c1ccc([C@@H]2C[C@H]2NC2CCNCC2)cc1
Method in brief: as §1

Measured: log2 fold change

ELOB (UniProt Q15370)
inactive: [1] -0.011 | [2] -0.049 | [3] 0.008 | [4] 0.005 | [5] -0.044

EPRS (UniProt P07814)
inactive: [1] -0.005 | [2] 0.002 | [3] 0.003 | [4] 0.043 | [5] 0.016

ELP1 (UniProt O95163)
inactive: [1] 0.014 | [2] 0.005 | [3] 0.021 | [4] -0.03 | [5] -0.051

EIF3G (UniProt K7ER90)
inactive: [1] 0.05 | [2] 0.047 | [3] 0.016 | [4] -0.053 | [5] -0.071
